## Screening data, single-dose tests

By UniProt entry, the sequences of proteins in these tests, tags left out. Residues count along the entry.
UniProt P9WNZ1, whole entry: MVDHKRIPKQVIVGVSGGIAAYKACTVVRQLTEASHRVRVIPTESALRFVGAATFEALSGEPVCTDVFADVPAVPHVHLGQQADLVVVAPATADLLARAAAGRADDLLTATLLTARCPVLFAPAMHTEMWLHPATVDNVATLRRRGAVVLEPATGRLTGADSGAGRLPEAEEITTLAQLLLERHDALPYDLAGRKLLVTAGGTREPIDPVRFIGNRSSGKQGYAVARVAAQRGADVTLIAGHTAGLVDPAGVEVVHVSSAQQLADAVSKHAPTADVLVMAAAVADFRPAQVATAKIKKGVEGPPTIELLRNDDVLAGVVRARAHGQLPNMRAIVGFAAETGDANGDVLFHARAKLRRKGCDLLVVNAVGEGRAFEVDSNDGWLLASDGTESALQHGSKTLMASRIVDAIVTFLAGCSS
UniProt P9WFT3, whole entry: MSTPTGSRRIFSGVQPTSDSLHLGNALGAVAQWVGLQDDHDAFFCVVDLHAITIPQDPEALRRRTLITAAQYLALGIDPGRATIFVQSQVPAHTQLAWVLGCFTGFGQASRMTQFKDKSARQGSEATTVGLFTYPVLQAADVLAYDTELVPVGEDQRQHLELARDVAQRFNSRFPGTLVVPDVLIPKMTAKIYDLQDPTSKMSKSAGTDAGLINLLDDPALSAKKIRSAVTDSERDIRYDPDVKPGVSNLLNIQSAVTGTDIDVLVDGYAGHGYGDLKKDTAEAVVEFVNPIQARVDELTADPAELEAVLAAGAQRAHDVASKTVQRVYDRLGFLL
UniProt Q4DA54, 1-478: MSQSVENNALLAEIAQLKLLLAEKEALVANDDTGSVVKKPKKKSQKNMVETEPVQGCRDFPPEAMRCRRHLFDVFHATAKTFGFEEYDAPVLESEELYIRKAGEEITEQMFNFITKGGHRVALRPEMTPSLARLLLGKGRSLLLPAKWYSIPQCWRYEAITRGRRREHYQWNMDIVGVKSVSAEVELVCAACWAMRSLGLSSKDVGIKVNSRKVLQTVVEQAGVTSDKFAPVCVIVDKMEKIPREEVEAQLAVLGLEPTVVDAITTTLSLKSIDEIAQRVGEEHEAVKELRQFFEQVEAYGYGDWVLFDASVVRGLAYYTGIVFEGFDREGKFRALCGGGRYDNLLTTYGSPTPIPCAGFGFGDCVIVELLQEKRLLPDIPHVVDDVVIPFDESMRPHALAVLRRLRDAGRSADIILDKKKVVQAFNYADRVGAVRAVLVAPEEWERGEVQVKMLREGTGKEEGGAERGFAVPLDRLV
UniProt Q8IDJ8, 1-583: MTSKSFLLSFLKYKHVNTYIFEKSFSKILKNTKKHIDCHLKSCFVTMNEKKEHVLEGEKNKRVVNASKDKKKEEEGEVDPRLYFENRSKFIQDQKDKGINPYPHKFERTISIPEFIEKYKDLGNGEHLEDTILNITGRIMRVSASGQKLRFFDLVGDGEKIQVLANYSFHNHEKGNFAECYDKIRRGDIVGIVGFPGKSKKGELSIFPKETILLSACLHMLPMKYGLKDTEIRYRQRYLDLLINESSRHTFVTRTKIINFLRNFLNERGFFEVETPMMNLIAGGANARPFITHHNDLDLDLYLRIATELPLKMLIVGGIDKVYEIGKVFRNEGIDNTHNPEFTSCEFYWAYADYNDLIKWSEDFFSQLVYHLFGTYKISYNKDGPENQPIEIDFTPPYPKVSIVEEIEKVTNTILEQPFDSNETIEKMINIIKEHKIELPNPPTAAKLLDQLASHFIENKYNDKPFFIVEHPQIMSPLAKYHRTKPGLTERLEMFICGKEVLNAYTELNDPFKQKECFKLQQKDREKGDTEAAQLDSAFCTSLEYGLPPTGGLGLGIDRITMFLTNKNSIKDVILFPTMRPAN

Source: ChEMBL document CHEMBL3988442, “University of Dundee, Small-Polar-MMV Screening Library” (2021).

Results are given as percent effect. The record does not define 0% and 100%; most values in the screen are far below 50% and negative numbers occur (in some assays of this library far below -100). Compounds were drawn at random from those tested, without regard to their results. Two or more numbers in one place are separate tests of the same structure; such repeats can differ widely.

CoaBC: 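Coenzyme A biosynthesis protein CoaBC, Mycobacterium tuberculosis (UniProt P9WNZ1). Enzyme assay of CoaBC with a phosphate dye (Biomol Green) read at 650 nm. Compounds at 30 µM. Direction is inferred from only a few compounds that gave an IC50; most scored high, so higher reads as stronger inhibition. Most strong results did not repeat in a second test. Size under these conditions: about 67,000 compounds, about 40 of them at 50% or above in at least one test.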
MtTrpRS: 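Tryptophan-tRNA ligase, Mycobacterium tuberculosis (UniProt P9WFT3). Enzyme assay of tryptophanyl-tRNA synthetase; the read-out is not stated. Compounds at 10 µM. Higher most likely means stronger inhibition; the record gives no direction and few retests gave an IC50. About 65,000 compounds were tested under these conditions; 0.098% (about 64) showed 50% or more at least once.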
TcHisRS: 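Enzyme assay of histidyl-tRNA synthetase; the read-out is not stated. Target: Histidine-tRNA ligase, Trypanosoma cruzi CL Brener (UniProt Q4DA54). Tested at 30 µM. Higher reads as stronger inhibition (inferred: compounds with an IC50 in retests scored well above the rest). About 69,000 compounds were tested under these conditions; 0.045% (about 31) showed 50% or more at least once.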
PfKRS1: 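Enzyme assay of the cytosolic lysyl-tRNA synthetase in 384-well plates, read by luminescence. Target: Lysine-tRNA ligase, Plasmodium falciparum 3D7 (UniProt Q8IDJ8). Compounds at 30 µM. Higher reads as stronger inhibition, judged from the few compounds that gave an IC50. Of about 69,000 compounds tested this way, about 49 (0.071%) reached 50% or more in at least one test.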

structure: CC(C)(C)SCCNC(=O)[C@@]12CNC[C@@H]1CN(S(C)(=O)=O)C2
CoaBC: 6.379
MtTrpRS: -1.911
TcHisRS: 6.806
PfKRS1: 2.17

structure: O=C1NCc2ccccc2CC12CCCN(CCCc1ccccc1)C2 (stereo not drawn)
CoaBC: 10
MtTrpRS: -4.581
TcHisRS: 15.98
PfKRS1: 1.517

structure: CCn1c(CN2CCCC2)nnc1C1CCN(Cc2ccncc2)CC1
CoaBC: -0.8157
MtTrpRS: -1.044
TcHisRS: 6.931
PfKRS1: 6.965

structure: COCC(=O)NCCCn1ncc2c(C)cccc21
CoaBC: -8.083
MtTrpRS: -2.202
TcHisRS: 0
PfKRS1: 2.726

structure: COc1ccccc1N1CCC(CNCc2ccc(C#N)cc2)C1 (stereo not drawn)
CoaBC: 21.05 & 9.794
MtTrpRS: -10.05
TcHisRS: 9.884
PfKRS1: 0.9192

structure: Cc1nnc2n1CCN(C(=O)c1cc(Br)c[nH]1)C2
CoaBC: 4.859
MtTrpRS: -2.08
TcHisRS: 7.647
PfKRS1: 0.8939

structure: COCC(=O)N1CCCC2(CCN(CCN3CCCC3)CC2)C1
CoaBC: -15.37
MtTrpRS: -5.672
TcHisRS: 5.747
PfKRS1: 3.051

structure: CN(C)C(=O)c1sc2ncccc2c1C1CNCCO1 (stereo not drawn)
CoaBC: -67.61
MtTrpRS: -1.013
TcHisRS: 6.202
PfKRS1: 0.8583

structure: COCC1CC2(CCN(C(=O)c3ccccc3C)CC2)CN1C(C)C (stereo not drawn)
CoaBC: 1.976
MtTrpRS: 25.61
TcHisRS: 2
PfKRS1: -1.903

structure: CN1CCN(C2CCN(CC(O)c3ccccc3)CC2)C1=O (stereo not drawn)
CoaBC: 16.33
MtTrpRS: 0.8972
TcHisRS: 4.124
PfKRS1: 2.309

structure: CCC(CC)C(=O)NCC1(NC(C)c2ccccc2)CCOCC1 (stereo not drawn)
CoaBC: -3.045
MtTrpRS: -1.145
TcHisRS: 0.5952
PfKRS1: -2.829

structure: CC(CO)(NC(=O)Nc1nncs1)C1CCCCC1 (stereo not drawn)
CoaBC: 3.629
MtTrpRS: -2.058
TcHisRS: 2.521
PfKRS1: 7.966

structure: CN(CCCO)Cc1cc(Cl)ccc1OCC(O)CN1CCCCCC1 (stereo not drawn)
CoaBC: 8.908
MtTrpRS: 2.907
TcHisRS: 28.36
PfKRS1: 2.674

structure: O=C(C1CC=CC1)N1C[C@@H](OCc2cccnc2)[C@H]2OCCC[C@H]21
CoaBC: 4.622
MtTrpRS: 1.221
TcHisRS: 9.091
PfKRS1: 9.644

structure: CC(C)c1nc(CN(C)C(=O)CCS(=O)(=O)c2ccccc2)no1
MtTrpRS: 0.7224
TcHisRS: 3.896
PfKRS1: 2.856

structure: Cc1nccnc1C1CCN(C2CCCC2O)CC1 (stereo not drawn)
CoaBC: 0.3681
MtTrpRS: -9.407
TcHisRS: 5.426
PfKRS1: 1.802

structure: Cc1nn(CC(=O)Nc2ccon2)cc1Br
CoaBC: 0.5102
MtTrpRS: -1.528
TcHisRS: 6.696
PfKRS1: -0.646

structure: O=C(NCCN1CCCCCC1=O)c1n[nH]c(=O)c2ccccc12
CoaBC: -0.4819
MtTrpRS: -1.039
TcHisRS: -0.7634
PfKRS1: 2.539

structure: CCS(=O)(=O)N1CCOCC2(CCN(c3ccccn3)C2)C1 (stereo not drawn)
CoaBC: 2.757
MtTrpRS: 1.521
TcHisRS: 4.878
PfKRS1: -0.7628

structure: Cc1ccc(NC(=O)N2CCCC(O)(CO)CC2)cc1Cl (stereo not drawn)
CoaBC: 0.7673
MtTrpRS: 0.1575
TcHisRS: 4.04
PfKRS1: 6.161

structure: Cc1cc2n(n1)CCN(c1nc(N)nc3c1CCNCC3)C2
CoaBC: -1.607
MtTrpRS: -0.4388
TcHisRS: 4.103
PfKRS1: 4.253

structure: O=C(CSc1ccccn1)N1CCC(OCc2cccnc2)CC1
CoaBC: 4.087
MtTrpRS: 4.944
TcHisRS: -3.636
PfKRS1: 1.728

structure: CC(C)c1noc(CC[C@@H]2CCCN3CCCC[C@H]23)n1
CoaBC: 7.613
MtTrpRS: -3.722
TcHisRS: 3.665
PfKRS1: 5.817

structure: O=C(C1CC1)N1CCN(c2ccc(-n3cncn3)nn2)CC1
CoaBC: -5.285
MtTrpRS: -6.155
TcHisRS: -2.062
PfKRS1: 2.433

structure: CN1CCCn2c(nc(CNC(=O)c3ccsc3)cc2=O)C1
CoaBC: 2.96
MtTrpRS: -3.931
TcHisRS: 1.639
PfKRS1: 6.531

structure: CC(C)N1CCN(C)C2(CCN(C(=O)c3ccnnc3)CC2)C1=O
CoaBC: -2.326
MtTrpRS: -0.7752
TcHisRS: 6.452
PfKRS1: 1.024

structure: CCOCC1CN(C(=O)C2CCOCC2)Cc2cnn(C)c21 (stereo not drawn)
CoaBC: 0.6165
MtTrpRS: 16.76
TcHisRS: 1.905
PfKRS1: 3.609

structure: N#Cc1cccc(C(=O)N2CCc3c(COCC4CC4)cncc3C2)c1
CoaBC: 14.59
MtTrpRS: 1.339
TcHisRS: 8.602
PfKRS1: 2.624